For test [1], the target named is T1, Flag-labeled RRM1 (human) (UniProt P23921).
T1 sequence: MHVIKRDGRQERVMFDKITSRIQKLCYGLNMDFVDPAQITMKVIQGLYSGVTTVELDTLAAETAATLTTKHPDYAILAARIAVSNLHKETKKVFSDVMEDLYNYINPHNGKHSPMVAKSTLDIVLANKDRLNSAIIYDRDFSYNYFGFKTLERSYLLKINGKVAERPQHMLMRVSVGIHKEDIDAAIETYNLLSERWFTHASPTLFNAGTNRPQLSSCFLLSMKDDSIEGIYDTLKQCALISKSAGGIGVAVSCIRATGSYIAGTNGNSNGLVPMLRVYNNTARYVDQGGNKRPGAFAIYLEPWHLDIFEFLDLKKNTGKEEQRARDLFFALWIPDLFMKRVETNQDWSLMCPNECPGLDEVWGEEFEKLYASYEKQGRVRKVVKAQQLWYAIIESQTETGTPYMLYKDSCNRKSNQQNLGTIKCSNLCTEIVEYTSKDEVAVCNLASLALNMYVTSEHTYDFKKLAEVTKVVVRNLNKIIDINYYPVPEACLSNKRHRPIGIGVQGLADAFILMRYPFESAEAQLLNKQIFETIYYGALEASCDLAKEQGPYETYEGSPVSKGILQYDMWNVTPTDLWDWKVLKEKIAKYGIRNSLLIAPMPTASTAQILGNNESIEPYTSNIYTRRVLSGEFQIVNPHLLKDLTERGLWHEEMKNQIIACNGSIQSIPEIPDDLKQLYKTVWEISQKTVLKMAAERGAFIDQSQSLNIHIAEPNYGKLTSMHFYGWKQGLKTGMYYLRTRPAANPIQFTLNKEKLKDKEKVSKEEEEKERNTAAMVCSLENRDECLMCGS
Kind of test: co-IP; H23-Flag-RRM1 cells transiently transfected with HA-RNF2 or GFP-Bmi1, harvested after 48 h; IP with anti-Flag Ab, immunoblot with anti-HA or anti-GFP; for HA-RNF2 also with MG132 treatment (Fig. 3A). For orientation: A western blot detects proteins with antibodies after separation by electrophoresis.

Protein sequences, listed by entry. Tags and fused reporters are not part of them.
UniProt Q99496: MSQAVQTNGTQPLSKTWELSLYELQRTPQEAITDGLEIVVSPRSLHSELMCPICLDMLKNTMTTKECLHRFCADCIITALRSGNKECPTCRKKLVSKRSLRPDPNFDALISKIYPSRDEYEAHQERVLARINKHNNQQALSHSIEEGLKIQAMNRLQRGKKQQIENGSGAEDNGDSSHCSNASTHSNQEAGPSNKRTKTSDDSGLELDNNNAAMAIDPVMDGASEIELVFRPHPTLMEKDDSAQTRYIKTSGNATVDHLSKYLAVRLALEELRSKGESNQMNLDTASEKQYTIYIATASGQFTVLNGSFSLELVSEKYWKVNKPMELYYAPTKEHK
UniProt P35226: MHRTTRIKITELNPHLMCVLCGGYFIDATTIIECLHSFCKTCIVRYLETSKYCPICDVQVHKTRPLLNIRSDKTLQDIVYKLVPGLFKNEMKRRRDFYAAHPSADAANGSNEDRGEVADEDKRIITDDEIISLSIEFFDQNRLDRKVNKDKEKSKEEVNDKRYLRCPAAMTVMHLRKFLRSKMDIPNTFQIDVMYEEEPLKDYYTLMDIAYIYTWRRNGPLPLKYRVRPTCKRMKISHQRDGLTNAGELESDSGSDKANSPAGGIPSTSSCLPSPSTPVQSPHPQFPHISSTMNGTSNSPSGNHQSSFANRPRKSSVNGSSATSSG

The target of test [2] is T2, Ribonucleotide reductase M1 (RRM1), endogenous (human (endogenous in NCI-H23)) (UniProt P23921).
T2 sequence: T1 sequence
Description: co-IP; endogenous proteins, H23-WT lysate (1% Triton X-100, 100 mM NaCl, 50 mM Tris-HCl pH 7.4); IP with anti-RRM1 Ab or control IgG on protein G or A beads, immunoblot.

The target in test [3] is T2, Ribonucleotide reductase M1 (RRM1), endogenous (human (endogenous in NCI-H23)). Description: co-IP; endogenous proteins, H23 gemcitabine-resistant (GR) cell lysate; IP with anti-RRM1 Ab, immunoblot; low-stringency conditions.

For four substances, binding results are on record in article PMC3948819.

These are yes or no findings as the source states them, for the method shown. Binding seen in cells or lysates may run through a third protein. Some binding calls cover weakened binding; strength is not graded here. For some of these results: Where a sequence is shown, tags or fusion partners need not be part of it.

For “hemagglutinin-(HA)-labeled RNF2 (from UniProt Q99496 1-336)”, in test [1], the binding entry was “binds”.

On to GFP-Bmi1 (from UniProt P35226 1-326), for which the binding result in test [1] is “binds”.

With “RING finger protein 2 (RNF2), endogenous (from UniProt Q99496 1-336)”, the binding result in test [2] was “binds”.

With “Bmi1 (B cell-specific moloney murine leukemia virus insertion site 1), endogenous (from UniProt P35226 1-326)”, the binding entry in test [3] was “binds weakly”.
